Experimental data as given in paper PMC9764985.
Results are given in words; binding and its absence hold for the method and conditions named. In cells and extracts the contact can be indirect. Binding can be weak; no strength is given. Tags and fused reporters may be left off the sequences shown.

B1: FtsE of D. radiodurans (protein, UniProt Q9RU44 1-576)
chain: MSVPAPGLRWARLQRSRDEKRPHPLFMVARRGWAMLTNEHAATISFALPPAAAPDVGPFPESGVIEFRQVTLEYPATHTLALDNLTVSVTKGEFVYLVGHSGAGKSSFMNLILKRALPTRGEVRVAGQPLSHYRGRRTPLLRRHMGTVFQDNLLLSHLNAYDNVAFALRVIGVPGREWPERVSAALRLVGLEHKKHALPMQLSLGEQQRVAIARAIVSDPPLLLADEPTGNLDPDHSREVLRVLQGVHLRGTTVVVATHARDLVETYRHRTLTLRRGKLVRDDHLGVRPVNYHFRQALLAMRANLTATLSTLTTMTLTLLTLGGVLLLTLNVNRTLERLESQVEVAAYLTPAADEELLLRTARAYPQVSQARLVSSEEVLKEMTRDYPYTREATALTGNPFPDTLRLRVARLEDSRGVAAAVEALPGVESVEYGETYVDSAVRALTAVRAVGYGMVALLLVGTLFNILNAVRVAMFARRDEISVMRLLGATRSFIRMPHLIEGLLVGGVAAVLAVTALAWGYQVLAGRLALFAPIFPVVTDWDVLWPLLIGVGLLGVLVGLVGSLFATRRYLRELE
B2: FtsA of D. radiodurans, T18-tagged (protein, UniProt Q9RWN6 1-517)
chain: MRENSIIVGLDIGTTKITTVIGEVAPDGTIDIIGEGSVPSEGMKRGSVINLERATQAIKQSLHAAERVSGVRAWNVFVSVGGNHTKAMTSHGLAAIRRQQEISPPDVERAIENARAVPLDPSLEILHTIPQEYVVDGQEGIKNPVGMHGVRLEVDVHIVAGSAGPLLNLRRCVQEAGLQIEGFVLHSLASGLATLDHSEQNQTTVVVDMGGGTTDIGVFKRGNLAHSASIPIGGDHVTADLAQILKIPMEEAEKVKRHYGAAIPELADQELTLEITTASGATHAISAYELSRVIRPRVSEIYGLIRDEIDQALGPVELVAQSVVLTGGGAQLPGAVDLARERFRLPTRLGRPRGIHGLSDIVGDPAHACSVGMVLYGITQDGRVPSGLDDGGDPAGYTEYAGRHDQGYPQGGYPAPGYLTAPTGGTHVAPQGTPGSYPGPGYVVSGGQSQGQPYPPMPNTGSHSAGVPSMSGPVIGGQVVGVDPHAQVLVDGQPQRPPSGPKVSLMDRVRSLFRDWF
B3: GyrA of D. radiodurans (protein, UniProt Q9RT53 1-812)
chain: MTGIQPVDITSEVKTNFINYAMNVIVDRALPDVRDGMKPVQRRIMYAMLQEGLASNVKHAKSASVVGEVMKRYHPHGDSSIYDAMVRLGQWWNMRYTLVDPQGNFGSMDGDMAAAMRYTEARMTKVAEEILADLEKETVDLKPNYDETTTEPTVLPSAVPNLLINGASGIAVGMATNIPPHNLTEISNGLLALIDNPAITLDEMMTHVQGPDFPTGGRIAKVGIREAYATGHAGLKVRGKARIEEGKNGRTQIIISEIPYQLNKTNLLQTISAMYKAGKIPDIGALRDESDRKEPVRIVIELKRSAAGMGTLVLNQLYKYTQLQSSYTVMNLSIVNGEPRVLPLIDTMRYFLDHRRDVVTRRTVYDLRKAKERAHVLEGLLKALDHIDEVISLIRASNTGAEARDGLMARFGLSEIQAQAILDMRLQRLVGLEREKLQGEYDELQKTITRLESILGDEKLLWREIKKEIRDIRDRYGDARRSVITELEEDINKEDLIAVEDMVITMTRAGYVKRTNLTAYREQKRGGRGSSGGKLREEDANTGVFVGSTHDYLLFFTDQGRVFHEKIYDLPEAGRDAKGTHIRNLLPGLRDDENIASVLSVSGFDQPGSFIFATKSGVIKKSLITDYANITSAGLIAINLQPGDELIGVDIQQDGDDVVLATKNGQAMRFEATLVRDTGRATQGVIGIRLREGDEVVSMALVPGNDEEGELLAISECGLGKRTKVSDYPSKGRGGLGVITLDVTDKTGKLVTLAHVAGNEELMVLTEKGTVIRTRVEEVRVTGRNAQGVKVINIGDKDRVIDAFPIRKEDEL
B4: FtsZ of D. radiodurans, T18-tagged (protein, UniProt Q9RWN5 1-371)
chain: MQAARIRVIGLGGAGNNAVNRMIESGLEGVEFIAGNTDAQVLAKSHAEVRIQLGDRLTRGLGAGADPKVGEEAAVEDRDRIKEYLDDTDMLFITAGMGGGTGTGSAPVVAEIAREMGILTVAIVTRPFKFEGPKRMRVAEEGMSKLADRVDGMIVVNNEKLLTAVDKKVSFREAFLIADRVLYYGVKGISDVINVEGMINLDFADVRNLLANSGTVLMGIGAGRGDKMAEEAAMSAIHSPLLERGIEGARRILVNVTGGYDLSMTDANEIVEKIREATGFDDPDILFGITPDEAAGDEVRVTVIATGFGDNTYAAPLGGVVSSGRGGYDQGGYGSGLVRPVRGGQGGLGGGSSYDPKDYDIPAFLRNVGGQ

molecular target: Deinococcus radiodurans FtsK (drFtsK), histidine-tagged (Deinococcus radiodurans R1); experiment: co-IP; E. coli BL21(DE3) pLysS co-expressing histidine-tagged FtsK and a T18-tagged protein; cell extracts at log phase; immunoprecipitated with anti-polyhistidine antibodies, blotted with antibodies against the T18 domain of CyaA

binding | Binder
no binding | B1
binds | B2
no binding | B3
binds | B4
